Some of the results follow. Hit calls seldom repeat between salt and free forms of one compound.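 Kinases were expressed as nanoluciferase fusions in K562 cells and luminescence was read every 4 h between 2 and 18 h as percent of control, DMSO set to 100% and a positive control to 0%. A time point counts as decreased when the signal drops significantly (2 sigma). The hit call is the authors' own, does not follow from the count of time points alone, and its rule is not shown.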
How the values were obtained:
Assay in all cases: kinase-Nluc reporter destabilization hit call (1 = scored as downregulated) (binary); higher = compound decreases kinase abundance
Details in all cases: K562; 2-18 h
[1] = test system: BRAF_V600E
[2] = molecular target: BTK (UniProt Q06187)
[3] = molecular target: CAMK2A (UniProt Q9UQM7)
[4] = molecular target: CAMK2G (UniProt Q13555)
[5] = molecular target: CDK10 (UniProt Q15131)
[6] = molecular target: CDK2 (UniProt P24941)
[7] = molecular target: CDK3 (UniProt Q00526)
[8] = molecular target: CDK4 (UniProt P11802)
[9] = molecular target: CDK5 (UniProt Q00535)
[10] = molecular target: CDK6 (UniProt Q00534)
[11] = molecular target: CDK7 (UniProt P50613)
[12] = molecular target: CDK9 (UniProt P50750)
[13] = molecular target: CHEK2 (UniProt O96017)
[14] = molecular target: CSF1R (UniProt P07333)
[15] = molecular target: CSK (UniProt P41240)
[16] = molecular target: CSNK1A1 (UniProt P48729)
[17] = molecular target: CSNK1D (UniProt P48730)
[18] = molecular target: DDR1 (UniProt Q08345)
[19] = molecular target: DYRK1B (UniProt Q9Y463)
[20] = molecular target: DYRK2 (UniProt Q92630)

The chains behind the UniProt entries cited, without tags or fusion partners. Where a name states a change or a piece, a line headed by the entry shows the natural chain unless it says otherwise.
UniProt Q13555: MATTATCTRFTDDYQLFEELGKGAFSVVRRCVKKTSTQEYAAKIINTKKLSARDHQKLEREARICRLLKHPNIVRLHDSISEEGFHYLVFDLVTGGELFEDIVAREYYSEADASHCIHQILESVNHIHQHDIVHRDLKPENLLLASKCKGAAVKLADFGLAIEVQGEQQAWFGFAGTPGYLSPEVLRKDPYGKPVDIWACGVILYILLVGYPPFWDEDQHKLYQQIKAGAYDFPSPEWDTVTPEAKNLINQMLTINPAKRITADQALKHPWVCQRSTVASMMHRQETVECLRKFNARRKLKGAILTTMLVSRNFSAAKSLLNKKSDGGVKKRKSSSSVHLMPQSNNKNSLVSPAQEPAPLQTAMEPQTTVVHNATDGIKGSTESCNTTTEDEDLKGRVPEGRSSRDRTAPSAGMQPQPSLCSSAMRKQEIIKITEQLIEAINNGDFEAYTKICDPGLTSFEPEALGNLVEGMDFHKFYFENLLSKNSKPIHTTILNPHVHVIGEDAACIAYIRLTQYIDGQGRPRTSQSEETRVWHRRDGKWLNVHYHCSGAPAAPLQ
UniProt Q00526: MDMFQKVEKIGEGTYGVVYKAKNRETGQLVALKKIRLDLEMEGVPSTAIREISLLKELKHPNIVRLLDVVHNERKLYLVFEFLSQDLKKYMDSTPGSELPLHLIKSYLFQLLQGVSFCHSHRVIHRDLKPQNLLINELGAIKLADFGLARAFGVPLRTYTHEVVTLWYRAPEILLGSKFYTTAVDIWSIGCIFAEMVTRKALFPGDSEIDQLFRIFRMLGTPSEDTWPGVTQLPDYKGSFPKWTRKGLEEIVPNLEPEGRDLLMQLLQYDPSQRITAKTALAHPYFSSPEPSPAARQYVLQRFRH
UniProt Q00535, whole entry, looked up: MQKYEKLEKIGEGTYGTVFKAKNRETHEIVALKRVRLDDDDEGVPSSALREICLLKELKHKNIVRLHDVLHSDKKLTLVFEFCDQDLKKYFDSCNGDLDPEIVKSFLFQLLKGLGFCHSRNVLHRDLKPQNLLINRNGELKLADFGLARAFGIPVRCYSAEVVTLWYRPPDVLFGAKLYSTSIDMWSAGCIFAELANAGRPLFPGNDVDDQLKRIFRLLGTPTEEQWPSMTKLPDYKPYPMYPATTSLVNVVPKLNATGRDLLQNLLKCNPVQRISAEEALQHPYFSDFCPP
UniProt Q00534, whole entry: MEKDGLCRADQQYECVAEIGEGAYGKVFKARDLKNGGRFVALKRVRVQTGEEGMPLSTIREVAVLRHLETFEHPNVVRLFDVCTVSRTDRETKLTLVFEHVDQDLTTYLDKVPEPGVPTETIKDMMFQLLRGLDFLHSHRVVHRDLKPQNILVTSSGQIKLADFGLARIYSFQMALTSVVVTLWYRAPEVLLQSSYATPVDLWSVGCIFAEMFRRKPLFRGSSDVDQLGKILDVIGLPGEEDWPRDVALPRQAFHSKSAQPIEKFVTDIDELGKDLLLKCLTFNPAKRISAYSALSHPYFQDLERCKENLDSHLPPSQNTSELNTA
UniProt P50613: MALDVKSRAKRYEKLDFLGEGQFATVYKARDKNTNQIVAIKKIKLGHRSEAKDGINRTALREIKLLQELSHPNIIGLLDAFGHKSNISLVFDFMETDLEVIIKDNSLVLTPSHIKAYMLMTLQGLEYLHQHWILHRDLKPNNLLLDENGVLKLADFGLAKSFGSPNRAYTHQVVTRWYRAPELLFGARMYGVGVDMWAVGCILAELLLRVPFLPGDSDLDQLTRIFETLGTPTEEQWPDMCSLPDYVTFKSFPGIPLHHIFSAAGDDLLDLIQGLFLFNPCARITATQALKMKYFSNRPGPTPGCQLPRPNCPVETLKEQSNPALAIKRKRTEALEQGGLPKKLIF
UniProt P50750, whole entry: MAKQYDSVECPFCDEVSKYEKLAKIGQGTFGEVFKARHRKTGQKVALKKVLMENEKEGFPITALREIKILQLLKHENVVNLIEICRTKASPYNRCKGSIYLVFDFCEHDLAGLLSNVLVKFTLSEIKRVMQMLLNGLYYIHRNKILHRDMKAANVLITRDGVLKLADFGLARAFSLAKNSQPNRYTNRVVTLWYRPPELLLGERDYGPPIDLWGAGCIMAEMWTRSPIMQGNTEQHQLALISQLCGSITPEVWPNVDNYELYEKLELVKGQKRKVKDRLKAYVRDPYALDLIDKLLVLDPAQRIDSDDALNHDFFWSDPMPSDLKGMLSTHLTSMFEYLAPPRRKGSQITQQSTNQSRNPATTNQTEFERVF
UniProt O96017, whole entry: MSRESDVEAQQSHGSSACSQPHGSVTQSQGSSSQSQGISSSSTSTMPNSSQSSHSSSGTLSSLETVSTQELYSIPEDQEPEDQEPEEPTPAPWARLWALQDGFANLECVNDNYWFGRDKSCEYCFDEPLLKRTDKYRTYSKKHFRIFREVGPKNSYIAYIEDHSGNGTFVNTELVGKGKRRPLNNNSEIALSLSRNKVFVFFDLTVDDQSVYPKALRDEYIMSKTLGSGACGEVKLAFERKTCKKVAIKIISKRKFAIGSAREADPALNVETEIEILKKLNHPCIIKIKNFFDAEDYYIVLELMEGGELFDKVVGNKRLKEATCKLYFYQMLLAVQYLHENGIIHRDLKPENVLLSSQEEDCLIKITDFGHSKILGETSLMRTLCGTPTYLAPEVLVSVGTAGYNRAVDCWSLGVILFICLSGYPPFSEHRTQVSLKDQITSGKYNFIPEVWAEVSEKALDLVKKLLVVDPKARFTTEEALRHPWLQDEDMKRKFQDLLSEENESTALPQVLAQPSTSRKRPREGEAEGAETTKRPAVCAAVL
UniProt P07333, whole entry: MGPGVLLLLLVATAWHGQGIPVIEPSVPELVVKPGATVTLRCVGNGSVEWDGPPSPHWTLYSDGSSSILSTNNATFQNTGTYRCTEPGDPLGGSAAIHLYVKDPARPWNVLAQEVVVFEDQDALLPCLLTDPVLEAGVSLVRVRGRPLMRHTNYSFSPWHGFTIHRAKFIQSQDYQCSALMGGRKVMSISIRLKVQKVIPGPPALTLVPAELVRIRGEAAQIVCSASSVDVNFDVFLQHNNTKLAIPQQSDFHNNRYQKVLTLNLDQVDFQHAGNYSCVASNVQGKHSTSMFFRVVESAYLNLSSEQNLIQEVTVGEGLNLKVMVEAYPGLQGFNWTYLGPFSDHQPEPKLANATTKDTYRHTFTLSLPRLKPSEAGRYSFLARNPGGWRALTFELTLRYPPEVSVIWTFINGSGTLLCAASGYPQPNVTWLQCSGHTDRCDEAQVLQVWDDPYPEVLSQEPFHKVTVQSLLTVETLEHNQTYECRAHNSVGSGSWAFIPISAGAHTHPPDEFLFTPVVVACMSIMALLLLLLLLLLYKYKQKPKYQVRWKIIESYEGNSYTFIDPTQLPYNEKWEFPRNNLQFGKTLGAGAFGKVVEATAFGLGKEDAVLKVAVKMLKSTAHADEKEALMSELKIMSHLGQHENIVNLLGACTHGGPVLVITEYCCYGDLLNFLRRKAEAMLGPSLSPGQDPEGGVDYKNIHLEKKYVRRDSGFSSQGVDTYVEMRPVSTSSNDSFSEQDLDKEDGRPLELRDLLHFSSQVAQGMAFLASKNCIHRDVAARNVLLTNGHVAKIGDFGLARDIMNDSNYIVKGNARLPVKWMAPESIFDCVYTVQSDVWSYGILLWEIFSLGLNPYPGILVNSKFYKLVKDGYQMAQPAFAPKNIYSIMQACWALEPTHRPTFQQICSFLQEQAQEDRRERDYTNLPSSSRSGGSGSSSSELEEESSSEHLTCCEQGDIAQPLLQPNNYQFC
UniProt P41240: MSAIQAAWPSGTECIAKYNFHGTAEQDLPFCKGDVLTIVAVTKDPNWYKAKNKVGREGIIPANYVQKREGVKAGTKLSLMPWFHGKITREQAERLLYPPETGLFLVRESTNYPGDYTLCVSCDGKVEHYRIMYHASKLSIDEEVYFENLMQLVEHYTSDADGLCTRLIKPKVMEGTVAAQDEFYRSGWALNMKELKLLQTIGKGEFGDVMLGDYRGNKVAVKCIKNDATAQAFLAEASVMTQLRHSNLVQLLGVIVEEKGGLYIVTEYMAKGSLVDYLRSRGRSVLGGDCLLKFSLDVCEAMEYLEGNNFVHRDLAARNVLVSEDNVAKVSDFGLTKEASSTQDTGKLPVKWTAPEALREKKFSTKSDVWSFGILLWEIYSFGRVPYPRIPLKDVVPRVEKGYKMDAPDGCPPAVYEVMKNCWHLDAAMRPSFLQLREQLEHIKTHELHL
UniProt P48729: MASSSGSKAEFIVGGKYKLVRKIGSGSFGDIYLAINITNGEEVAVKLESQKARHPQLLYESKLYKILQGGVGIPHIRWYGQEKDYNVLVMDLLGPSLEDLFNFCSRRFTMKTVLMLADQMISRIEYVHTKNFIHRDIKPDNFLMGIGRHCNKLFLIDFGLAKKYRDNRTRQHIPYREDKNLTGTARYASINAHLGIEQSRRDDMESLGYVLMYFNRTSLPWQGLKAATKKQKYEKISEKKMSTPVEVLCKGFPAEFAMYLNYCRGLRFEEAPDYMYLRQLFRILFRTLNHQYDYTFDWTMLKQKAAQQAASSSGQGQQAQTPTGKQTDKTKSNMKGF
UniProt P48730: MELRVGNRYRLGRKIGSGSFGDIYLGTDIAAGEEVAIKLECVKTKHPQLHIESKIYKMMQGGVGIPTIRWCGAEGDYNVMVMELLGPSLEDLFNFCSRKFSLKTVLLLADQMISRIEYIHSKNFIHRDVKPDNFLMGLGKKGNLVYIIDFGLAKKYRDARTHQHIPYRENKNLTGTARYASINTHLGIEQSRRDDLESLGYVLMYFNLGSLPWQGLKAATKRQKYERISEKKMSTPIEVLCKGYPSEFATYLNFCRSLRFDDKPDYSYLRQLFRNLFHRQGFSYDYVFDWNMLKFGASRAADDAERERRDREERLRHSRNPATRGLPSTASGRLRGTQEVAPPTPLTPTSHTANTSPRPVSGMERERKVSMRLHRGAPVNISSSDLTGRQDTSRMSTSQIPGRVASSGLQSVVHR
UniProt Q08345: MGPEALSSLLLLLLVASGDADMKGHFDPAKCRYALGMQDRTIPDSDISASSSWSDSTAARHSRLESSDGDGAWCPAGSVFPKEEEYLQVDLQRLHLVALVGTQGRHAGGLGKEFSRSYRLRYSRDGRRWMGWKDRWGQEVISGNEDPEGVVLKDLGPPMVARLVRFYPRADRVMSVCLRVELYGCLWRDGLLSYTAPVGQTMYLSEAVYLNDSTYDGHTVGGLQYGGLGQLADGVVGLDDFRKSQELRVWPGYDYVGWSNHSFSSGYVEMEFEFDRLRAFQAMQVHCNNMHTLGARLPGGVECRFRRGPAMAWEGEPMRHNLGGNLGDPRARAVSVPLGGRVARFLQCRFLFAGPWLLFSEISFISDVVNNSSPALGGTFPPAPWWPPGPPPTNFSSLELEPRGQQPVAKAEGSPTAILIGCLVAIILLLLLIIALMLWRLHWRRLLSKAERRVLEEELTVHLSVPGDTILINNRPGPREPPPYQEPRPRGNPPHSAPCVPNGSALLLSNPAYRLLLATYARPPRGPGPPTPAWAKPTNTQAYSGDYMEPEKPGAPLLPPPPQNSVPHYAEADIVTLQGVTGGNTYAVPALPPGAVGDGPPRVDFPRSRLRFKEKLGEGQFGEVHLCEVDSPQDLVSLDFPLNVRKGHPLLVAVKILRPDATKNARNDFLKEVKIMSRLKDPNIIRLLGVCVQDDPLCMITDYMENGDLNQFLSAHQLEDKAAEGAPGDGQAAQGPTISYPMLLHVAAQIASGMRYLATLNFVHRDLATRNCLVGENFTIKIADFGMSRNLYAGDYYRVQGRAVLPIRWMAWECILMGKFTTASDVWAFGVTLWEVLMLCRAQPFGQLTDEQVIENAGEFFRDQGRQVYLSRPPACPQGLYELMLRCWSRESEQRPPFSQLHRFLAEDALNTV
UniProt Q9Y463, whole entry, looked up: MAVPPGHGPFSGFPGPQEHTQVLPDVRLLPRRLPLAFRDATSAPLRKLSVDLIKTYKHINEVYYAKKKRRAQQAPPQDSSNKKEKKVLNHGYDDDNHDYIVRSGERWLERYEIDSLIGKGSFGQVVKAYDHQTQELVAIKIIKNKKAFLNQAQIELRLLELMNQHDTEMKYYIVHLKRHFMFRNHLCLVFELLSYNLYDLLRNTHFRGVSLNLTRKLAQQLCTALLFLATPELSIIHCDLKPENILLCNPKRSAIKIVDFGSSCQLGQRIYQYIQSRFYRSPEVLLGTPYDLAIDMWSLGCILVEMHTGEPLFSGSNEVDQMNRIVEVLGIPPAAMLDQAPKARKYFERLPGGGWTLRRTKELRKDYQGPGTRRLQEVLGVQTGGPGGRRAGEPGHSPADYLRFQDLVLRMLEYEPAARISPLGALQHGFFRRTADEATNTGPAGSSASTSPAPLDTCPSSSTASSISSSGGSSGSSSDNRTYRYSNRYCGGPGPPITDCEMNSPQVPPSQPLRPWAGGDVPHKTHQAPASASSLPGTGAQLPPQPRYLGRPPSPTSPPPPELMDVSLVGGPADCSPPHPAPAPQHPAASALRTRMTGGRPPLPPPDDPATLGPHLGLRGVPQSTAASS

Measured: kinase-Nluc reporter destabilization hit call

COc1cc2c(cc1Nc1ncc(C(N)=O)c(Nc3c(F)cccc3C(F)(F)F)n1)CN(C)CC2 (2.5 µM)
inactive: [1] 0 | [2] 0 | [3] 0 | [4] 0 | [5] 0 | [6] 0 | [7] 0 | [8] 0 | [9] 0 | [10] 0 | [11] 0 | [12] 0 | [13] 0 | [14] 0 | [15] 0 | [16] 0 | [17] 0 | [18] 0 | [19] 0 | [20] 0

CCN1CCN(Cc2cnc(Nc3cc(-c4cc(F)c5nc(C)n(C(C)C)c5c4)c(F)cn3)nc2)CC1 (10 µM)
inactive: [1] 0 | [2] 0 | [3] 0 | [4] 0 | [5] 0 | [6] 0 | [7] 0 | [8] 0 | [9] 0 | [10] 0 | [11] 0 | [12] 0 | [13] 0 | [14] 0 | [15] 0 | [16] 0 | [17] 0 | [18] 0 | [19] 0 | [20] 0

Cc1cc([C@@H](C)Nc2ccccc2C(=O)O)c2nc(N3CCOCC3)cc(=O)n2c1 (10 µM)
inactive: [1] 0 | [2] 0 | [3] 0 | [4] 0 | [5] 0 | [6] 0 | [7] 0 | [8] 0 | [9] 0 | [10] 0 | [11] 0 | [12] 0 | [13] 0 | [14] 0 | [15] 0 | [16] 0 | [17] 0 | [18] 0 | [19] 0 | [20] 0

Cc1cc(C(=O)Nc2nc3cccc(Cl)c3n2[C@@H]2CCCCN(C(=O)/C=C/CN(C)C)C2)ccn1 [Nazartinib] (10 µM)
inactive: [1] 0 | [2] 0 | [3] 0 | [4] 0 | [5] 0 | [6] 0 | [7] 0 | [8] 0 | [9] 0 | [10] 0 | [11] 0 | [12] 0 | [13] 0 | [14] 0 | [15] 0 | [16] 0 | [17] 0 | [18] 0 | [19] 0 | [20] 0

COc1ccc2c3n(c(=NC(=O)c4cccnc4)nc2c1OC)CCN3 (2 µM)
inactive: [1] 0 | [2] 0 | [3] 0 | [4] 0 | [5] 0 | [6] 0 | [7] 0 | [8] 0 | [9] 0 | [10] 0 | [11] 0 | [12] 0 | [13] 0 | [14] 0 | [15] 0 | [16] 0 | [17] 0 | [18] 0 | [19] 0 | [20] 0

CO[C@H]1C[C@@H]2CC[C@@H](C)[C@@](O)(O2)C(=O)C(=O)N2CCCC[C@H]2C(=O)O[C@H]([C@H](C)C[C@@H]2CC[C@@H](OCCO)[C@H](OC)C2)CC(=O)[C@H](C)/C=C(\C)[C@@H](O)[C@@H](OC)C(=O)[C@H](C)C[C@H](C)/C=C/C=C/C=C/1C [Everolimus] (10 µM)
inactive: [1] 0 | [2] 0 | [3] 0 | [4] 0 | [5] 0 | [6] 0 | [7] 0 | [8] 0 | [9] 0 | [10] 0 | [11] 0 | [12] 0 | [13] 0 | [14] 0 | [15] 0 | [16] 0 | [17] 0 | [18] 0 | [19] 0 | [20] 0

CNC(=O)c1ccc2c(c1)ncn2-c1ccc(CC(=O)OC(C)(C)C)cc1 (10 µM)
inactive: [1] 0 | [2] 0 | [3] 0 | [4] 0 | [5] 0 | [6] 0 | [7] 0 | [8] 0 | [9] 0 | [10] 0 | [11] 0 | [12] 0 | [13] 0 | [14] 0 | [15] 0 | [16] 0 | [17] 0 | [18] 0 | [19] 0 | [20] 0

Cn1c2cc([S+](C)[O-])sc2c2cnn(Cc3cccc(N)c3)c(=O)c21 (stereo not given) (2.5 µM)
inactive: [1] 0 | [2] 0 | [3] 0 | [4] 0 | [5] 0 | [6] 0 | [7] 0 | [8] 0 | [9] 0 | [10] 0 | [11] 0 | [12] 0 | [13] 0 | [14] 0 | [15] 0 | [16] 0 | [17] 0 | [18] 0 | [19] 0 | [20] 0

N#Cc1cnc2c(Cl)cc(NCc3cn(CCN4CCCCCC4)nn3)cc2c1Nc1ccc(F)c(Cl)c1 [Cot inhibitor-1] (10 µM)
inactive: [1] 0 | [2] 0 | [3] 0 | [4] 0 | [5] 0 | [6] 0 | [7] 0 | [8] 0 | [9] 0 | [10] 0 | [11] 0 | [12] 0 | [13] 0 | [14] 0 | [15] 0 | [16] 0 | [17] 0 | [18] 0 | [19] 0 | [20] 0

C=C1C(=O)[C@@]23[C@H](O)C[C@@H]4C(C)(C)C(=O)CC[C@@]4(C)[C@@H]2CC[C@@H]1[C@H]3O [Glaucocalyxin A] (2.5 µM)
inactive: [1] 0 | [2] 0 | [3] 0 | [4] 0 | [5] 0 | [6] 0 | [7] 0 | [8] 0 | [9] 0 | [10] 0 | [11] 0 | [12] 0 | [13] 0 | [14] 0 | [15] 0 | [16] 0 | [17] 0 | [18] 0 | [19] 0 | [20] 0

Cc1cc(CSc2ccccc2C(=O)NCCNc2ccc(C(F)(F)F)cc2[N+](=O)[O-])on1 (10 µM)
inactive: [1] 0 | [2] 0 | [3] 0 | [4] 0 | [5] 0 | [6] 0 | [7] 0 | [8] 0 | [9] 0 | [10] 0 | [11] 0 | [12] 0 | [13] 0 | [14] 0 | [15] 0 | [16] 0 | [17] 0 | [18] 0 | [19] 0 | [20] 0

CC(O)(C#Cc1ccc2c(c1)N(c1nc(N)ncc1Cl)CC2)c1nccs1 (stereo not given) (2.5 µM)
inactive: [1] 0 | [2] 0 | [3] 0 | [4] 0 | [5] 0 | [6] 0 | [7] 0 | [8] 0 | [9] 0 | [10] 0 | [11] 0 | [12] 0 | [13] 0 | [14] 0 | [15] 0 | [16] 0 | [17] 0 | [18] 0 | [19] 0 | [20] 0

— the supplement of paper PMC12823440, “Inhibitors supercharge kinase turnover through native proteolytic circuits” (Nature, 2025)
